From PMC8990465
Results are given in words; binding and its absence hold for the method and conditions named. Binding seen in cells or lysates may run through a third protein. Some binding calls cover weakened binding; strength is not graded here. Where a sequence is shown, tags or fusion partners need not be part of it.

Experiments:
[1] = molecular target: T1, CLDN10 (Claudin-10) overexpressed with 3xflag (UniProt P78369); experiment: co-IP; anti-Flag M2 magnetic beads in cell lysate of CLDN10 overexpression and control groups, overnight at 4 °C, washed 3 times with lysis buffer; western blot
T1 sequence: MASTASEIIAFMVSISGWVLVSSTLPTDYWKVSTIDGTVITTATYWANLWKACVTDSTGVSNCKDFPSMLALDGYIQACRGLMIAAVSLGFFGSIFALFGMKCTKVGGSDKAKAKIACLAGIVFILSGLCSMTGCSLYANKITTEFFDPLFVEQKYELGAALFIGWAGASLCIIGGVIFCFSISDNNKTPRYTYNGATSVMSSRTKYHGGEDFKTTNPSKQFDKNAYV

[2] = molecular target: T2, ATP5O overexpressed with 3xflag (UniProt P48047); experiment: co-IP; Flag IP from mitochondrial protein of the ATP5O (3xflag) stably transfected Caki-1 cell line; western blot
T2 sequence: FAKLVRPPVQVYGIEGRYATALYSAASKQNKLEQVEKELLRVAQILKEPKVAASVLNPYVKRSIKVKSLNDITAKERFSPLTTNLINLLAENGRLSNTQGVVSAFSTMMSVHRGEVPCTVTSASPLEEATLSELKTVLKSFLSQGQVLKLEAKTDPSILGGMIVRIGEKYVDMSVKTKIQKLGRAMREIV

B1: ATP5O protein (ATP synthase subunit O, mitochondrial) (protein, UniProt P48047 24-213)
chain: T2 sequence
With B1 the binding [1] was “binds”.

B2: CLDN10 protein in the mitochondria of ATP5O-3xflag Caki-1 cells (protein, UniProt P78369 1-228)
chain: T1 sequence
With B2 the binding [2] was “binds”.
